PubChem BioAssay AID1159578 – Peter MacCallum Cancer Centre – 2015

- Purpose: 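siRNA pools altering how lymphatic endothelial cells close a scratch wound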 (primary screen)
- Cell system: human lymphatic endothelial cells
- Knock-down reagent: siRNA pool against human genes, 40 nM
- Timing: 48 h after transfection
- Read-out: 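Cells stained with dye and imaged after a scratch; covered wound area and nuclei counted, duplicates averaged, migration set against mock wells and turned into a robust z-score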
- Scale: migration robust z-score: higher = faster migration into the scratch; nuclei per well: higher = more cells in the well
- Active means: 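Pools averaging fewer than 3300 nuclei are never called; remaining pools count as changed when migration robust z lies outside -2 to 2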
- Meaning of the calls: active = migration changed; inactive = no migration change, or too few cells
Shown is one part, drawn at random, of about 18,000 deposited reagents. About 1,030 of all reagents (5.7%) were called active. 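Inactive calls also include pools with fewer than 3300 nuclei, whose migration was not assessed.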 Raw values are not corrected between plates. Unmarked entries are inactive. The numbers tell different reagents against one gene apart. Further read-outs or replicates are left out here.

gene knocked down	reagent no.	migration robust z-score	nuclei per well, duplicate mean
SP100 (GeneID 6672)	1	-0.59	4642
HACD3 (GeneID 51495)	1	0.32	6214
TTLL12 (GeneID 23170)	1	-3.75 (active)	4240
FAM131B (GeneID 9715)	1	-0.16	4985
POLE (GeneID 5426)	1	-0.62	2160
CES1 (GeneID 1066)	1	0.34	5314
OR52E2 (GeneID 119678)	1	0.56	6110
TMEM216 (GeneID 51259)	1	0.88	6588
SNX11 (GeneID 29916)	1	2.09 (active)	6203
HMGB1 (GeneID 3146)	1	-1.46	5594
CCDC7 (GeneID 79741)	1	-1.12	5253
CCDC7 (GeneID 79741)	2	-0.04	5535
LMAN2L (GeneID 81562)	1	0.2	6444
FRYL (GeneID 285527)	1	-0.89	6240
CTDP1 (GeneID 9150)	1	1.84	5452
ARHGEF10L (GeneID 55160)	1	0.18	4541

No new results follow: entries from further up.
gene knocked down	reagent no.	migration robust z-score	nuclei per well, duplicate mean
SP100 (GeneID 6672)	1	-0.59	4642
HACD3 (GeneID 51495)	1	0.32	6214
TTLL12 (GeneID 23170)	1	-3.75 (active)	4240
FAM131B (GeneID 9715)	1	-0.16	4985

Further results follow.
gene knocked down	reagent no.	migration robust z-score	nuclei per well, duplicate mean
SLC35D2 (GeneID 11046)	1	0.6	5093
RBP3 (GeneID 5949)	1	-0.8	5360
NDUFAF7 (GeneID 55471)	1	-0.6	6002
AQR (GeneID 9716)	1	-1.7	3763
LSAMP (GeneID 4045)	1	-0.8	6422
SLC8A1 (GeneID 6546)	1	0.34	6138
SGPP1 (GeneID 81537)	1	1.25	7058
CADPS (GeneID 8618)	1	0.3	5005
RIMKLB (GeneID 57494)	1	-0.27	6368
GYPB (GeneID 2994)	1	-0.94	6564
YOD1 (GeneID 55432)	1	0.12	5398
VTI1B (GeneID 10490)	1	0.98	6850
LTV1 (GeneID 84946)	1	-1.91	5865
GLS2 (GeneID 27165)	1	0.08	5984
NAF1 (GeneID 92345)	1	0.12	6476
PATL1 (GeneID 219988)	1	-1.85	4862
GSTK1 (GeneID 373156)	1	-0.18	5030
IL1RN (GeneID 3557)	1	0.34	5899
CHMP3 (GeneID 51652)	1	-0.01	7087
OR10H1 (GeneID 26539)	1	0.11	4238
RTF1 (GeneID 23168)	1	-0.9	5291
PRIMA1 (GeneID 145270)	1	2.12 (active)	4966
B3GNT8 (GeneID 374907)	1	0.99	5960
